Results reported in paper PMC7948425.
These are yes or no findings as the source states them, for the method shown. In cells and extracts the contact can be indirect. Here binding means that the protein was enriched with, or labelled near, the bait; the list need not be complete. Where a sequence is shown, tags or fusion partners need not be part of it.

Biological target: T1, SMC1A with FLAG/streptavidin binding peptide dual epitope tag, from the gene-edited endogenous allele (human (endogenous in HCT116)) (UniProt Q14683)
T1 sequence: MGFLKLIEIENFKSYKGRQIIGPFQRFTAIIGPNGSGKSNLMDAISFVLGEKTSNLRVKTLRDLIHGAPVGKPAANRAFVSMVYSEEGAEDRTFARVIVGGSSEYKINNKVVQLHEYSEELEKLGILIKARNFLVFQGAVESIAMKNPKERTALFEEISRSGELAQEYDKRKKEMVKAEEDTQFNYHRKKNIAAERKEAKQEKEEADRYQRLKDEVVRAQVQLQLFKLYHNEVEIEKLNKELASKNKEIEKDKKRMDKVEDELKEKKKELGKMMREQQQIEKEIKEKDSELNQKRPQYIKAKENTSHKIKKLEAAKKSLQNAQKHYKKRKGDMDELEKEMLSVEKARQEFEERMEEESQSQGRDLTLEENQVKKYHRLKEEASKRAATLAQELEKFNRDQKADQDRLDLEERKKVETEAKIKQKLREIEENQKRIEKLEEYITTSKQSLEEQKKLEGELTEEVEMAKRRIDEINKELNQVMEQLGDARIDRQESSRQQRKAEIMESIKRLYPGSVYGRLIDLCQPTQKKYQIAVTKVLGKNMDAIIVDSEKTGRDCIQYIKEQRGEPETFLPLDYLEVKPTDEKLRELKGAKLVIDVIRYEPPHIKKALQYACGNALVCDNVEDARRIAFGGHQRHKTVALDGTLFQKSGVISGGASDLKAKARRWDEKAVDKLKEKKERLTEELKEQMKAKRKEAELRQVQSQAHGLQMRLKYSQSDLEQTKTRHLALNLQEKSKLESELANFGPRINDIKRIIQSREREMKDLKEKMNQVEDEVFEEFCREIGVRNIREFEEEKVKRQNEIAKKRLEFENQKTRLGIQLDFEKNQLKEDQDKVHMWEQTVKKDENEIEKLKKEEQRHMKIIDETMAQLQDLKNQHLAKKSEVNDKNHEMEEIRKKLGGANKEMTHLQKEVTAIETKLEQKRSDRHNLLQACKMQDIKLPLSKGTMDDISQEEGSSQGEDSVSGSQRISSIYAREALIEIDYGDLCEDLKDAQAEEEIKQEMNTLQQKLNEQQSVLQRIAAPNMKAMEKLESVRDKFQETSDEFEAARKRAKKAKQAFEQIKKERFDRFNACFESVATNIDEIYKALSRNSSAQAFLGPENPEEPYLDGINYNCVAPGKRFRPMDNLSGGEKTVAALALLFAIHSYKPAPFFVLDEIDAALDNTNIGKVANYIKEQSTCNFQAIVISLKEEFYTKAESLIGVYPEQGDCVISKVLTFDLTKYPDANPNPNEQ
Assay: affinity purification with mass spectrometry; dual-affinity purification (FLAG, then streptavidin) of dual epitope-tagged endogenous cohesin subunits from HCT116 nuclear extracts, mass spectrometry; primary data in ref. 13

B1: Ubiquitin-Specific Protease 13 (USP13), endogenous (enzyme, UniProt Q92995 1-863)
chain: MQRRGALFGMPGGSGGRKMAAGDIGELLVPHMPTIRVPRSGDRVYKNECAFSYDSPNSEGGLYVCMNTFLAFGREHVERHFRKTGQSVYMHLKRHVREKVRGASGGALPKRRNSKIFLDLDTDDDLNSDDYEYEDEAKLVIFPDHYEIALPNIEELPALVTIACDAVLSSKSPYRKQDPDTWENELPVSKYANNLTQLDNGVRIPPSGWKCARCDLRENLWLNLTDGSVLCGKWFFDSSGGNGHALEHYRDMGYPLAVKLGTITPDGADVYSFQEEEPVLDPHLAKHLAHFGIDMLHMHGTENGLQDNDIKLRVSEWEVIQESGTKLKPMYGPGYTGLKNLGNSCYLSSVMQAIFSIPEFQRAYVGNLPRIFDYSPLDPTQDFNTQMTKLGHGLLSGQYSKPPVKSELIEQVMKEEHKPQQNGISPRMFKAFVSKSHPEFSSNRQQDAQEFFLHLVNLVERNRIGSENPSDVFRFLVEERIQCCQTRKVRYTERVDYLMQLPVAMEAATNKDELIAYELTRREAEANRRPLPELVRAKIPFSACLQAFSEPENVDDFWSSALQAKSAGVKTSRFASFPEYLVVQIKKFTFGLDWVPKKFDVSIDMPDLLDINHLRARGLQPGEEELPDISPPIVIPDDSKDRLMNQLIDPSDIDESSVMQLAEMGFPLEACRKAVYFTGNMGAEVAFNWIIVHMEEPDFAEPLTMPGYGGAASAGASVFGASGLDNQPPEEIVAIITSMGFQRNQAIQALRATNNNLERALDWIFSHPEFEEDSDFVIEMENNANANIISEAKPEGPRVKDGSGTYELFAFISHMGTSTMSGHYICHIKKEGRWVIYNDHKVCASERPPKDLGYMYFYRRIPS
With B1 the binding was “binds”.
